From PubChem BioAssay AID624297 (National Center for Advancing Translational Sciences (NCATS), 2012)
About 6,200 (1.8%) of roughly 340,000 compounds were called active. Inconclusive means that the source gave no clear call. Such entries were picked first, then a sample of the others. Calls follow the shape of the dose curve; as a rule, active = well fitted activation curve with a large enough effect; inconclusive = small, poorly fitted or top-dose-only effect; inactive = no such curve, though single readings can be large or run the other way. A potency beside an inconclusive call is a rough fit, not a confirmed value.

Assay: A quantitative high throughput screen for small molecules that induce DNA re-replication in SW480 colon adenocarcinoma cells. Also: nearly all actives have a fitted effect of over 55% in size. As to re-replication activation: % of control where 0% means no effect.
Settings: Hoechst DNA content imaging, 48 h; re-replication activation: at 46.1 µM (top of the series) unless noted
In short: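 Hoechst fluorescence of nuclei (405 nm excitation, 500-530 nm emission) measured by plate-scanning imager after 48 hr compound exposure at 37 C; re-replication scored as increased number of nuclei with elevated intensity.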
Potency is read from the fitted curve at half-maximal effect.

Q: Which Potency does the source give for O=C(c1ccc([N+](=O)[O-])o1)N1CCN(c2nc3ccc(F)cc3s2)CC1 here?
A: inconclusive: 0.103 µM [activator, full curve, poor fit]

Q: Which Potency does the source give for CCN(CC)c1cc(C)c2cc(NC(=O)c3ccc(Br)o3)ccc2n1 here?
A: inconclusive: 18.4 µM [activator, single point]

Q: Which Potency does the source give for COc1ccc(-c2csc(N(CCCN(C)C)C(=O)c3ccccc3C)n2)cc1 here?
A: inconclusive: 29.1 µM [activator, single point]

Q: For CC1=NOC(=O)/C1=C\c1ccc(-c2cc(Cl)ccc2Cl)o1, which re-replication activation is on record?
A: inconclusive: 65.7% [activator]

Q: Which “re-replication activation” value does the source give for Cc1ccc(NC(=S)NNC(=S)Nc2cccc(C(F)(F)F)c2)cc1 here?
A: inactive: 16.4%

Q: With CC(C)(C)c1ccccc1OCCCCCNCCO as the compound, how does the Potency read?
A: inconclusive: 29.1 µM [activator, single point]

Q: Which “re-replication activation” value does the source give for N#CC(Cc1cc2ccccc2n1S(=O)(=O)c1ccccc1)OCc1ccccc1 (centres undefined) here?
A: inactive: 15.5%

Q: For C=CCCC(=O)N1C[C@H]2CON(C)[C@H]2C[C@H]1c1cccc(Br)c1, which Potency is on record?
A: inconclusive: 1.16 µM [activator, partial curve, poor fit]

Q: Which Potency does the source give for COC(=O)c1c(NC(=O)CN2CCC3(O)CCCCC3C2c2cc(OC)ccc2OC)sc(C)c1C (centres undefined) here?
A: inconclusive: 0.0326 µM [activator, full curve, poor fit]

Q: With COc1cc(N/N=C(\C)c2ccc(O)c(C)c2)nc(-c2ccccc2)n1 as the compound, how does the Potency read?
A: inconclusive: 29.1 µM [activator, single point]

Q: With CCCc1nnc(NC(=O)COc2ccc3c(c2)OCO3)s1 as the compound, how does the Potency read?
A: inconclusive: 29.1 µM [activator, single point]

Q: Which “re-replication activation” value does the source give for Cc1cccc(Nc2nnc(SCC(=O)Nc3cccc(S(=O)(=O)N4CCCCC4)c3)s2)c1 here?
A: inactive: 15.8%

Q: Which Potency does the source give for CC(C)CC(NC(=O)OCc1ccccc1)C(=O)NC(Cc1ccccc1)C(=O)CCl (centres undefined) here?
A: active: 6.51 µM

Q: For O=C1CN(C(=O)c2ccc(Br)o2)C(c2ccc(F)cc2)c2cc(Cl)ccc2N1 (centres undefined), which Potency is on record?
A: inconclusive: 31.6 µM [activator, single point]

Q: Which Potency does the source give for Cc1ccc(NC(=O)c2ncn(CCCNCCCN(C)C)n2)cc1C here?
A: inconclusive: 29.1 µM [activator, single point]

Q: Which Potency does the source give for CC1=C(CC/C(C)=N/NC(N)=S)C(C)(C)CCC1 here?
A: active: 11.2 µM

Q: With CCCCN1C(=N)N([C@@H](C)CN2CCC[C@H]2CN2C(N)=NC[C@@H]2Cc2ccccc2)C[C@H]1[C@H](C)CC as the compound, how does the “re-replication activation” value read?
A: inactive: -4.69%

Q: With COc1cccc(N/C(SC)=C(/C#N)C(=O)NCc2cccs2)c1 as the compound, how does the “re-replication activation” value read?
A: inactive: 7.82%

Q: For COc1ccc(C(=O)N/N=C(\C)c2ccccn2)cc1OC, which Potency is on record?
A: inconclusive: 1.46 µM [activator, full curve, poor fit]
